Experimental data from PubChem BioAssay AID1487 (National Center for Advancing Translational Sciences (NCATS), 2009).
Values joined by “and” are separate entries in the source; they are usually repeats but may differ in a detail not shown here. Equal values may be shown once. The list shows a part of the results. The main result of the screen is listed elsewhere. These columns were measured beside it and carry no call. Most of these compounds were active or inconclusive in the main read-out, so they are no random draw. Words in brackets tell the shape of the fitted curve; partial curves, single points and poor fits give uncertain potencies.

Experiment: qHTS Assay for Modulators of Lamin A Splicing
Settings: HeLa LMNA splicing GFP/RFP minigene ratio, 48 h
How it was run: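 Read-out is the ratio of GFP to DsRed2 object intensity, acquired by 488 nm laser-scanning cytometry on HeLa lamin A-EGFP minigene reporter cells. Compound incubation 48 hrs at 37 °C in Opti-MEM with 2% FBS; DMSO 0.5% final.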

[1] = measured here: GFP splicing reporter channel
[2] = measured here: RFP viability control channel

Structure (SMILES) | AC50 [1] | AC50 [2]
O=C(NC(=S)Nc1ccc(N2CCCC2)cc1)c1ccccc1[N+](=O)[O-] | 0.126 µM [rising, full curve, poor fit] | 
Cc1ccc(NC(=O)Nc2nnc(CSCCOc3ccc(Cl)cc3)s2)cc1 | 7.08 µM [rising, partial curve, poor fit] | 11.2 µM [rising, partial curve]
Cc1nc2c(C)cccc2cc1C(=O)N/N=C/c1ccc(O)cc1 |  | 20 µM [rising, single point]
COc1cccc(CNC(=O)c2cc3cc(C)ccc3n2C)c1 | 3.16 µM [falling, partial curve] | 12.6 µM [rising, partial curve]
Cc1no[n+]([O-])c1COc1cccc(/C=C2\N=C(c3ccccc3)OC2=O)c1 |  | 20 µM [rising, single point]
CC(=O)c1c(C)n(-c2ccccc2)c2ccc(O)cc12 |  | 31.6 µM [rising, single point]
Cc1cccc(OCc2nnc(SCC(=O)Nc3cccc(C(=O)N4CCOCC4)c3)n2C)c1 | 35.5 µM [rising, single point] | 
Cc1cc(C(=O)CSc2nnnn2-c2ccccc2)c(C)n1-c1ccc2c(c1)OCO2 | 8.91 µM [rising, partial curve] | 7.94 µM [rising, partial curve]
COCCn1c(=O)c(-c2ccccc2)nc2cnc(Nc3cccc(OC)c3)nc21 | 20 µM [falling, partial curve, poor fit] | 15.8 µM [falling, partial curve]
CC(O)C(NS(=O)(=O)c1ccc(Cl)cc1)C(=O)OCc1nnc(-c2ccccc2)o1 (stereo not given) | 35.5 µM [falling, partial curve, poor fit] | 35.5 µM [falling, partial curve, poor fit]
C#Cc1cccc(-n2nnc(C(C)=O)c2C)c1 |  | 7.08 µM [falling, full curve]
CCOC(=O)N1CCN(C(=O)c2ccc3c(=O)n4c(nc3c2)CCCCC4)CC1 | 0.178 µM [falling, full curve, poor fit] | 
CC#CCN1C(=O)N[C@@H](c2ccccc2)C(C(=O)OC)=C1C |  | 0.316 µM [falling, full curve, poor fit]
COc1cccc(-c2cncnc2NCc2ccccc2OC)c1 | 22.4 µM [falling, single point] | 31.6 µM [falling, single point]
O=C1c2cccc3cccc(c23)C(=O)N1CCCN1CCN(c2ccc(F)cc2)CC1 | 5.62 µM [rising, partial curve, poor fit] | 11.2 µM [rising, partial curve, poor fit]
CC1CC2(C)Oc3ccccc3CC2C(C)C1CNCCCN(C)C (stereo not given) | 25.1 µM [falling, single point] | 
O=C(NNc1ccc(C(F)(F)F)cc1[N+](=O)[O-])c1ccc(NS(=O)(=O)c2ccc(F)cc2)cc1 | 35.5 µM [falling, single point] | 35.5 µM [falling, single point]
CCc1ccc(C(=O)CN(C#N)c2nc(C)cc(C)n2)cc1 | 25.1 µM [falling, single point] | 35.5 µM [falling, single point]
c1ccc2cc3c(NCCN4CCOCC4)ccnc3cc2c1 | 35.5 µM [falling, single point] | 15.8 µM [falling, single point]
Cc1ccc(O)c(C(=O)c2cnc3c(c2)c(C)nn3-c2ccccc2)c1 | 35.5 µM [rising, single point] | 35.5 µM [rising, single point]
COc1ccc(OC)c(C(=O)c2coc3ccc(O)cc23)c1 | 1.58 µM [rising, partial curve, poor fit] | 3.98 µM [rising, partial curve]
CCOC(=O)N1CCN(Cc2nc(-c3ccc(C)cc3)no2)CC1 |  | 11.2 µM [rising, single point]
O=C(CSc1nc2c([nH]c3ccccc32)c(=O)n1-c1cccc(Cl)c1)N1CCOCC1 | 2 µM [falling, partial curve] | 2.82 µM [falling, partial curve] and 25.1 µM [falling, single point]
Cc1ccc(Cn2cnc3ccccc32)cc1C | 0.112 µM [rising, partial curve] | 12.6 µM [rising, partial curve]
O=C(CCCn1c(SCC(=O)NCCc2ccccc2)nc2ccccc2c1=O)NCC1CCCO1 (stereo not given) | 0.00891 µM [falling, full curve, poor fit] | 0.00708 µM [falling, full curve, poor fit]
CCCCN(CC)S(=O)(=O)c1ccc(C(=O)Nc2nnc(CSC)o2)cc1 | 7.94 µM [falling, partial curve] | 20 µM [falling, partial curve]

Record cards (already shown).
CCc1ccc(C(=O)CN(C#N)c2nc(C)cc(C)n2)cc1 in the list: AC50 [1]: 25.1 µM [falling, single point]; AC50 [2]: 35.5 µM [falling, single point]
CC(=O)c1c(C)n(-c2ccccc2)c2ccc(O)cc12 in the list: AC50 [2]: 31.6 µM [rising, single point]

Rewritten in CSV form: entries from further up
Structure (SMILES),AC50 [1],AC50 [2]
CC#CCN1C(=O)N[C@@H](c2ccccc2)C(C(=O)OC)=C1C,,"0.316 µM [falling, full curve, poor fit]"
COc1cccc(-c2cncnc2NCc2ccccc2OC)c1,"22.4 µM [falling, single point]","31.6 µM [falling, single point]"

The results go on:

Structure (SMILES) | AC50 [1] | AC50 [2]
O=C(c1cc(-c2ccc3c(c2)OCO3)on1)N1CCN(c2ccccc2)CC1 | 15.8 µM [rising, partial curve, poor fit] | 25.1 µM [rising, single point]
CCc1ccc(OCC(=O)Nc2cc(S(=O)(=O)CC)ccc2O)cc1 | 22.4 µM [rising, single point] | 22.4 µM [rising, single point]
COc1ccccc1/C=C/C(=O)Nc1ccc2c(c1)OCCO2 | 11.2 µM [rising, single point] | 22.4 µM [rising, single point]
O=[N+]([O-])c1cc(F)c2cccnc2c1O | 35.5 µM [falling, single point] | 6.31 µM [falling, partial curve]
Cn1c(N)c(C(=O)COC(=O)c2ccnc3ccccc23)c(=O)n(C)c1=O |  | 2.51 µM [falling, partial curve, poor fit]
COCC(C)n1c(C)cc(C(=O)CSc2cc(C)c3ccccc3n2)c1C (stereo not given) | 11.2 µM [rising, single point] | 20 µM [rising, single point]
O=C(Nc1ccc2nc3n(c(=O)c2c1)CCCCC3)c1ccccn1 |  | 28.2 µM [rising, single point]
Cc1ccc(NC(=O)Cn2ccsc2=N)cc1S(=O)(=O)N(C)C | 20 µM [rising, partial curve] | 3.16 µM [rising, partial curve, poor fit]
O=C(Nc1ccc2oc(-c3ccc4ccccc4c3)nc2c1)c1ccc2c(c1)OCCO2 |  | 5.62 µM [rising, partial curve]
CCc1ccccc1N(C)S(=O)(=O)c1ccc2[nH]cc(C(=O)N3CCc4ccccc43)c(=O)c2c1 | 35.5 µM [rising, single point] | 35.5 µM [rising, single point]
Nc1nc(SCc2nc3sc4c(c3c(=O)[nH]2)CCCC4)n[nH]1 |  | 11.2 µM [rising, partial curve, poor fit]
O=[N+]([O-])c1cc(/C=N/OCc2c(Cl)cccc2Cl)ccc1N1CCOCC1 |  | 11.2 µM [rising, partial curve, poor fit]
O=C(CN1N=C(c2ccccc2)CCC1=O)NCc1ccccc1 | 3.16 µM [falling, single point] | 3.98 µM [falling, single point]
CC(/C=C/c1ccccc1)=N\NC(=O)Cn1nc(C)cc1C | 2 µM [rising, partial curve] | 
C(=N\Nc1ncnc2sc3c(c12)CCC3)/c1cccs1 | 10 µM [falling, partial curve] | 5.62 µM [falling, full curve]
Cc1ccc(NC(=O)Cn2nnc(-c3ccccc3NC(=O)c3cccs3)n2)cc1 |  | 2 µM [rising, full curve]
O=c1oc2ccccc2cc1-c1csc(Cc2nc(-c3ccc(Br)cc3)cs2)n1 |  | 3.55 µM [rising, single point]
O=C(CSc1nnnn1-c1ccccc1Cl)Nc1ccc2c(c1)OCCO2 |  | 12.6 µM [rising, single point]
N#C/C(=C\c1cccc(O)c1)C(=O)Nc1ccc2c(c1)OCCO2 | 14.1 µM [falling, partial curve] | 35.5 µM [falling, partial curve, poor fit]
C=CCn1c(SCC(=O)c2cccs2)nc2sc(CC)cc2c1=O | 35.5 µM [rising, single point] | 
CCOc1ccc(-n2c(SCC(=O)NC(C)CC)nc3n[nH]c(C)c3c2=N)cc1 (stereo not given) | 1.78 µM [rising, full curve, poor fit] | 3.55 µM [rising, full curve, poor fit]
CN(C)CCCCOc1ccc(Br)cc1Cl |  | 0.112 µM [rising, full curve]
Cc1cccc(N=Nc2c(N)n[nH]c2-c2ccc(Cl)cc2)c1 | 0.0316 µM [falling, single point] | 0.1 µM [falling, partial curve]
O=C(CCc1nc(-c2ccccc2F)no1)NC1CCCCCC1 |  | 14.1 µM [rising, single point]
CCCSC1=N/C(=C/c2ccsc2)C(=O)N1c1ccccc1 |  | 7.94 µM [rising, partial curve]
C/C(=N\NC(=O)CSCc1ccc([N+](=O)[O-])cc1)c1cccc(Br)c1 |  | 12.6 µM [rising, partial curve, poor fit]
